No constants are given. Whether binding was seen depends on the method and setting. Some results given as binding are weak or reduced against the parent protein; the word gives no strength.

In this test the target is T1, NKp30 on NK cells (UniProt O14931 19-201, limits assumed).
T1 sequence (looked up): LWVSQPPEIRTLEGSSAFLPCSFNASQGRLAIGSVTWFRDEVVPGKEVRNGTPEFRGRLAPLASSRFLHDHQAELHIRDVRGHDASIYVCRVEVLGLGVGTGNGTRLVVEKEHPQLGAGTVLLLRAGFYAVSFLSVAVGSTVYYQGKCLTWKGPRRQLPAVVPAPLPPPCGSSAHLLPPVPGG
In words: flow cytometry on NK cells, antibody 40 µg/mL diluted 1:3, goat anti-human Fc-FITC, MFI (Example 7). For orientation: In flow cytometry, cells or beads pass a laser one at a time.

B1: antibody 9 (antibody, V domains shown)
VH: QVQLVESGGGSVQAGGSLRLSCAASGRTFSDYVMGWFRQAPGKEREFVGTITRIGGMPYYADFVKGRFTISRDYAKNAGYLQLNNLKPEDTALYYCALDLRLRLGVTPREYDYWGQGTQVTVSS
notes: expressed in CHO cells
In the case of B1, the binding result is given as “binds”.

B2: antibody 7 (antibody, V domains shown)
VH: EVQVVESGGGLVQAGGSLRLSCAASGRTFSNYNVGWFRQAPGKEREFLATISESGGSTYYADSVKGRFTISRDNGINMVYLQMSSLKPEDTAVYYCAESRIFSFSYADGRGYAYWGQGTQVTVFS
notes: expressed in CHO cells
Regarding B2, the binding entry is listed as “binds”.

B3: antibody 3 (antibody, V domains shown)
VH: QLQLVESGGGLVQTGDSTKLSCTASGRSFSINDMGWYRQAPGKLRELVAGITSGGSTNYADSVKGRFTISRDNAKNTVYLQMNSLKPEDTAVYYCNVLGWPDFGSWGQGTQVTVSS
notes: expressed in CHO cells
For the molecule B3, the binding result is “binds”.

B4: antibody 20 (antibody, V domains shown)
VH: EVQLVESGGGLVQPGGSLRLSCAASGSAFSIEPWGWYRQAPGQLRELVAGITSDDKTDYADSVKDRFTISRDNAKNTVFLQMNSLKPEDTAVYYCNVLGWPRDDYWGQGTQVTVSS
notes: expressed in CHO cells
For the molecule B4, the binding result was “binds”.

B5: antibody 15 (antibody, V domains shown)
VH: EVQLVESGGGSVQTGGSLRLSCAASGPTFNFYGMAWFRQAPGKEREFVASIIPGSGDTSYASSVRGRFTISEDNARNNAYLQMNTLKPEDTAVYYCAAGTGGIYSSDYPYWGQGTQVTVSS
notes: expressed in CHO cells
As for B5, the binding entry is reported as “binds”.

B6: antibody 11 (antibody, V domains shown)
VH: EVQLVESGGGLVQPGESLRLSCVASGGDFRFKSMGWYRQAPGKLRELVAGITTGGVTDYADSVKGRFTISRDNANKAVWLQMNRLKPDDTAVYDCNTLGAAAYDWGQGTQVTVSS
notes: expressed in CHO cells
Turning to B6, the binding result is “binds”.

B7: antibody 21 (antibody, V domains shown)
VH: EVQLVESGGGLVQPGGSLRLSCAASGSTYAFYNMGWFRQRPGKEREFAAAILWGRSGVYTTYADSVKGRFTISRDNAQNTVYLQMNSLKPEDTAVYYCAAGLGTMRANEYDYWGQGTQVTVSS
notes: expressed in CHO cells
For B7, the binding entry is reported as “binds”.

B8: antibody 23 (antibody, V domains shown)
VH: EVQLVESGGGLVQPGGSLRLSCAASGSIFSPNGIGWYRQAPGKLRELVAGITGNGLTDYADSVKGRFTISRDSAKNTVYLQMNSLKTEDTAVYYCNLLLNHAEWGQGTQVTVSS
notes: expressed in CHO cells; also called chimeric antibody 23
For B8, the binding result is on record as “binds”.

B9: antibody 17 (antibody, V domains shown)
VH: QLQLVESGGGLVQPGGSLRLSCAASGSIDSINAMGWYRQAPGKLRELVAGITRGGDVNYADSVKGRFTISRVDARNTVTVYLQMNSLKPEDTAVYYCNNLGFPSDWAQGTQVTVSS
notes: expressed in CHO cells
As for B9, the binding entry is on record as “binds”.

B10: antibody 13 (antibody, V domains shown)
VH: EVQLVESGGGLVQPGGSLRLSCAASGGIFGSTHMGWYRQAPGKLREMVAGITSTGNHRNVADSVKGRFTISKDNAKNTLYLQMNSLKPEDTAVYYCNSFPDQVFNWGQGTQVTVSS
notes: expressed in CHO cells
On to B10, for which the binding result was “binds”.

B11: antibody 18 (antibody, V domains shown)
VH: EVQLVESGGGLVQPGGSLRLSCAAAGIRFSIANMGWYRQAPGKLHEMVAGITSDGFTNYADSVKGRFTISRDNAKNTVYLQMNNLKPEDTAVYYCDSFPTRHYWGQGTQVTVSS
notes: expressed in CHO cells; also called chimeric antibody 18
For B11, the binding result was “binds”.

B12: antibody 6 (antibody, V domains shown)
VH: QVQLVESGGGLVQPGGSLRLSCAASRAIFPEYSIAWFRQAPGKEREGVALVSRIGDRVDYADSVKGRFTISRDNAKNTVYLQMNSLKPEDTAVYHCAAGQLSSSTYYGDEYVYWGQGTQVTVSS
notes: expressed in CHO cells
B12: the binding entry is recorded as “binds”.

B13: antibody 16 (antibody, V domains shown)
VH: EVQLVESGGGLVQAGGSLRLSCAASGISLITYNMGWYRQAPGKLRELVAGITTGGITDYTDSVKGRFTISRDNAKNTLYLQMNSLKPEDTAVYYCDTLGMANYWGQGTQVTVSS
notes: expressed in CHO cells
With B13, the binding result is “binds”.

B14: antibody 4 (antibody, V domains shown)
VH: QVQLVESGGGLVQPGGSLRLSCAASGSIFKINAMGWYRQAPGKLRELVAGITSGGSTNYADSVKGRFTISRDNAKNTLYLQMNSLKPDDTAVYYCNQLGFPQYWGQGTQVTVSS
notes: expressed in CHO cells
Turning to B14, the binding entry was “binds”.

B15: antibody 22 (antibody, V domains shown)
VH: QVQLVESGGGLVQPGGSLRLSCAASGSIFSANVMGWYRQAPGKLRELVAGMHSGGSANYADSVKGRFTISKDNAKNTMYLQMNSLKPEDTAVYYCNFGLGFDGHDYWGQGTQVTVSA
notes: expressed in CHO cells
For the molecule B15, the binding result is given as “binds”.

B16: antibody 10 (antibody, V domains shown)
VH: QVQLVESGGGLVQPGGSLTLSCAVSGITFSRSVMGWFRQAPGKLRELVAGITSDDNTDYADSVKGRFTISRDNAKNTVYLQMNSLKPEDTAVYYCNILPDSRLGWGQGTQVTVSS
notes: expressed in CHO cells; also called chimeric antibody 10
For the molecule B16, the binding result is recorded as “binds”.

B17: antibody 2 (antibody, V domains shown)
VH: QVQLVESGGGLVQPGGSLRLSCAASGSIFSVNEMGWYRQAPGKLRELVAAITSDGTTAYADSVKGRFTISRDNAKNTVYLQMNSLKPEDTAVYDCNTWPEARGDWGQGTQVTVSS
notes: expressed in CHO cells
With B17, the binding result is listed as “binds”.

B18: antibody 14 (antibody, V domains shown)
VH: QLQLVESGGGLVQPGGSLRLSCAVSASIFSVNEMGWYRQAPGKLRELVAAITSDGTTAYADSVKGRFTISRDNAKNTVYLQMNSLKPEDTAVYDCNTWPQARGDWGQGTQVTVSS
notes: expressed in CHO cells
B18: the binding result was “binds”.

B19: antibody 1 (antibody, V domains shown)
VH: QLQLVESGGGTVQTGGSLRLACVVSGPTYSFYDMGWFRRAPGKEREFVAAVTASGDTTIYADSVKGRFTIARDNAKNTVYLQMNSLKSEDTGAYYCAAGEYSSTAATYYYWGQGTQVTVSS
notes: expressed in CHO cells
Take B19: the binding entry is recorded as “binds”.

B20: antibody 8 (antibody, V domains shown)
VH: QVQLVESGGGLVQTGDSLRLSCAASGRTYDNYAMGWFRQAPGKEREFVAAFSQNGGRTDYADSVKGRFAISDDRSTVHLDMNSLLPEDTAVYYCAARPPAYFSNAVYSKVDEYRYWGQGTQVTVSS
notes: expressed in CHO cells
As for B20, the binding entry is “binds”.

B21: antibody 5 (antibody, V domains shown)
VH: EVQVVESGGGLVQAGGSLTLSCAASGRPFSTFPTSMGWFRQAPGKEREFVAAISESGLNTYYRDSVKGRFGISRDNAKNTVYLQMNTLTAEDTAVYFCAAAPGYMTTDSQYYLGNKYQYWGQGTQVTVSS
notes: expressed in CHO cells
Turning to B21, the binding result was “binds”.

B22: antibody 12 (antibody, V domains shown)
VH: EVQLVESGGDLVQPGGSLRLSCAAFGSSFSIDMMGWYRQVPGKQRELVAGITKGGFADYADSVKGRFTISMDAAKNTVYLQMNSLKPEDTAVYYCNTLPTHSDWGQGTQVTVSS
notes: expressed in CHO cells
For the molecule B22, the binding entry was “binds”.

B23: antibody 19 (antibody, V domains shown)
VH: EVQVVESGGDLVQPGGSLRLSCAAFGSSFSIDMMGWYRQVPGKQRELVAGITKGGFADYADSVKGRFTISMDAAKNTVYLQMNSLKPEDTAVYYCNTLPTHSDWGQGTQVTVSS
notes: expressed in CHO cells
B23: the binding result is given as “binds”.

The record behind these values is patent publication US20240150460A1 (SHENGHE CHINA BIOPHARMACEUTICAL, published 2024).
